Test results published in PubChem BioAssay AID340 (DTP/NCI, 2004).
The list shows only some results of the screen, not a fair sample: it gathers some chemical classes. Not every dose and run of a compound is shown. T/C gives the treated animals as a percentage of the vehicle group. Some entries give survivors of the animals treated and no T/C: the source files T/C as zero there, which appears to mark a toxic dose or a test without result, not a measured value. Some doses without a T/C left all or most animals alive at the check, yet need not have been tolerated: the source hardly ever lists a survival T/C far under the control, and the zero likely stands for such cases as well. Survivors were counted at the toxicity check, usually on the fifth day, unless a day is given; later deaths do not show. Schedule codes are those of the source, read here as Q, the interval in days (D) or hours (H), X, the number of doses. Some entries were tested several times; their values stand side by side, smallest first. For survival time, this PubChem deposit counts one and a half times the control or more as active, and values a quarter to a half above the control carry no call in these data; other NCI protocols may use other cut-offs. Brackets with × give the number of equal values in this list. Some T/C values are followed by the survivors on the day toxicity was checked, most often the fifth; without a count or a note in brackets, all were alive then.

Test system: CD2F1 mice, ip reticulum cell sarcoma, survival T/C
Assay: NCI In Vivo Anticancer Drug Screen. Data for tumor model Reticulum Cell Sarcoma (Kelley Mouse) (intraperitoneal) in CD2F1 (CDF1) mice
Details: T/C endpoint: median survival time, schedule: Q01DX010 (ip), vehicle: saline, higher T/C = longer survival
Method: The antitumor activity of compounds was measured in mice bearing transplantable tumors. Survival or tumor size were measured and the results are expressed as the measurement made in the treated group (T) divided by the measurement made in the vehicle treated control group (C). The tumor model used in this assay is Reticulum Cell Sarcoma (Kelley Mouse) (intraperitoneal) in CD2F1 (CDF1) mice

| Compound | T/C (dose: 1.25 mg/kg/injection) | T/C (dose: 2.5 mg/kg/injection) | T/C (dose: 5.0 mg/kg/injection) | T/C (dose: 10.0 mg/kg/injection) | T/C (dose: 20.0 mg/kg/injection) | T/C (dose: 14.0 mg/kg/injection) | T/C (dose: 30.0 mg/kg/injection) | T/C (dose: 8.0 mg/kg/injection) | T/C (dose: 16.0 mg/kg/injection) | T/C (dose: 32.0 mg/kg/injection) | survivor count (dose: 64.0 mg/kg/injection) |
| --- | --- | --- | --- | --- | --- | --- | --- | --- | --- | --- | --- |
| NC1CCCCC1.O=P(O)(N(CCCl)CCCl)N1CC1 | 100 % of control | 106 % of control (2×) | 109 and 116 % of control | 124 and 156 % of control | 118 % of control | – | – | – | – | – | – |
| CC[C@@H](C)[C@@H]1NC(=O)/C(=C(\C)O)C1=O.c1ccc(CNCCNCc2ccccc2)cc1 | – | – | – | 100 % of control | 106 % of control | 106 % of control | 100 % of control | – | – | – | – |
| CN(N=O)C(=N)N[N+](=O)[O-] | – | – | – | – | – | – | – | 126 and 135 % of control | 105 and 113 % of control | 100 [5 of 6 alive] and 102 % of control | 5 of 6 and 6 of 6 |
